{"source": "PubChem BioAssay AID602196 (INSERM, 2012)", "aim": "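Modifiers of cisplatin sensitivity in A549 cells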", "cells": "human A549 lung cancer cells", "reagents": "siRNA pair against human genes", "time to read-out": "48 h transfection before cisplatin; time from cisplatin to read-out not stated", "conditions": "cisplatin at a dose killing half of control-siRNA cells; exact dose and duration not given", "measured": "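Shift in cisplatin death relative to control siRNA, from -50 (all cells die) to +50 (no cells die); siRNAs harmful on their own scored 0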", "scale": "two-siRNA summed score (-2 to +2): higher = both siRNAs protect from cisplatin killing; -2 means both sensitise", "active means": "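siRNAs harmful alone (LDH or WST-1) get 0; others get +1 for less and -1 for more cisplatin killing; genes are active when the two siRNAs give the same sign, summing to ±2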", "calls": "active = both siRNAs shift cisplatin killing the same way; inactive = no consistent shift, or siRNA harmful alone", "note": "The whole screen tested about 23,000 reagents; shown is a random part of them. In the full data, 455 (2%) were called active. 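Active includes both protection and sensitisation; some change values fall well beyond the stated -50 to +50 range.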 Unmarked entries are inactive. The numbers tell different reagents against one gene apart. Further read-outs or replicates are left out here. No sequences are given here. The record does not give: the amount of reagent."}
{"gene symbol": "RIBC1", "reagent no.": 1, "two-siRNA summed score (-2 to +2)": 0}
{"gene symbol": "ELANE", "reagent no.": 1, "two-siRNA summed score (-2 to +2)": 0}
{"gene symbol": "SAXO6", "reagent no.": 1, "two-siRNA summed score (-2 to +2)": 0}
{"gene symbol": "LOC342460", "reagent no.": 1, "two-siRNA summed score (-2 to +2)": 0}
{"gene symbol": "MSTN", "reagent no.": 1, "two-siRNA summed score (-2 to +2)": 1}
{"gene symbol": "LOC400164", "reagent no.": 1, "two-siRNA summed score (-2 to +2)": -1}
{"gene symbol": "LOC391047", "reagent no.": 1, "two-siRNA summed score (-2 to +2)": 0}
{"gene symbol": "LGALS7", "reagent no.": 1, "two-siRNA summed score (-2 to +2)": 1}
{"gene symbol": "LOC285047", "reagent no.": 1, "two-siRNA summed score (-2 to +2)": 1}
{"gene symbol": "MT1G", "reagent no.": 1, "two-siRNA summed score (-2 to +2)": 0}
{"gene symbol": "ADH4", "reagent no.": 1, "two-siRNA summed score (-2 to +2)": 0}

Continued (2 carried over from the part before).
{"gene symbol": "MT1G", "reagent no.": 1, "two-siRNA summed score (-2 to +2)": 0}
{"gene symbol": "ADH4", "reagent no.": 1, "two-siRNA summed score (-2 to +2)": 0}
{"gene symbol": "FSIP2", "reagent no.": 1, "two-siRNA summed score (-2 to +2)": 0}
{"gene symbol": "FSIP2", "reagent no.": 2, "two-siRNA summed score (-2 to +2)": 0}
{"gene symbol": "ASPM", "reagent no.": 1, "two-siRNA summed score (-2 to +2)": 0}
{"gene symbol": "APOC2", "reagent no.": 1, "two-siRNA summed score (-2 to +2)": 0}
{"gene symbol": "LOC388554", "reagent no.": 1, "two-siRNA summed score (-2 to +2)": 0}
{"gene symbol": "SNRNP200", "reagent no.": 1, "two-siRNA summed score (-2 to +2)": 0}
{"gene symbol": "MYH6", "reagent no.": 1, "two-siRNA summed score (-2 to +2)": 0}
{"gene symbol": "LOC401945", "reagent no.": 1, "two-siRNA summed score (-2 to +2)": 1}
{"gene symbol": "LOC154907", "reagent no.": 1, "two-siRNA summed score (-2 to +2)": 0}
{"gene symbol": "LOC441260", "reagent no.": 1, "two-siRNA summed score (-2 to +2)": 0}
{"gene symbol": "MS4A1", "reagent no.": 1, "two-siRNA summed score (-2 to +2)": 0}
{"gene symbol": "CHMP4B", "reagent no.": 1, "two-siRNA summed score (-2 to +2)": 0}
{"gene symbol": "NDNF", "reagent no.": 1, "two-siRNA summed score (-2 to +2)": 0}
{"gene symbol": "PHETA1", "reagent no.": 1, "two-siRNA summed score (-2 to +2)": 1}
{"gene symbol": "ZNF575", "reagent no.": 1, "two-siRNA summed score (-2 to +2)": 0}
{"gene symbol": "CD69", "reagent no.": 1, "two-siRNA summed score (-2 to +2)": 0}
{"gene symbol": "AIDA", "reagent no.": 1, "two-siRNA summed score (-2 to +2)": 0}
{"gene symbol": "RAB7A", "reagent no.": 1, "two-siRNA summed score (-2 to +2)": 0}
{"gene symbol": "KRTAP21-2", "reagent no.": 1, "two-siRNA summed score (-2 to +2)": 1}
{"gene symbol": "SPATA17", "reagent no.": 1, "two-siRNA summed score (-2 to +2)": 0}
